# Data taken from patent US10870647B2, “Imidazopyridine derivative, method for preparing same, and pharmaceutical composition containing same as active ingredient for preventing or treating cancer” (DAEGU-GYEONGBUK MEDICAL INNOVATION FOUNDATION, priority 2016, dated 2020).
# Some entries share one result that the patent states for a list of compounds.
# Test system: scanMAX Kinase assay panel
# Test: Kinase selectivity, scanMAX Kinase assay panel (DiscoverX), % control at 1 uM
# Assay type: binding
# Details: 1 uM in DMSO; for the kinases listed in b655 (ABL1 mutants ... ZAP70)
# Method: The following experiment was performed to evaluate the inhibitory activity of the compound of the present invention on more enzymes.
# Particularly, among the compounds of the present invention, the compounds of Example 1, Example 12 and Example 78 were selected and assigned to DiscoverX to measure the kinase selectivity. The experiment was performed by using scanMAX™ Kinase assay panel.
# At this time, the concentration of the drug to be treated to the enzyme was adjusted to 1 uM in DMSO, and the control percentage (% control) was determined according to the following Equation 1. [Example Compound−Positive Control/Negative Control−Positive Control]×100 [Equation 1]
# The enzyme selectivity of the compound of the present invention was judged to be active for the enzyme if the % control was <35 (i.e. less than 35%) for each enzyme.
row,SMILES,% control
1,"Cc1ccc(C(=O)Nc2ccc(CN3CCN(C)CC3)c(C(F)(F)F)c2)cc1C#Cc1cnc2c(Nc3cnn(C)c3)cccn12 [Example 1, 4-methyl-3-((8-((1-methyl-1H-pyrazol-4-yl)amino)imidazo[1,2-a]pyridin-3-yl)ethynyl)-N-(4-((4-methylpiperazin-1-yl)methyl)-3-(trifluoromethyl)phenyl)benzamide]",less than 35%
2,"Cc1cn(-c2cc(NC(=O)c3ccc(C)c(C#Cc4cnc5c(Nc6cnn(C)c6)cccn45)c3)cc(C(F)(F)F)c2)cn1 [Example 12, 4-methyl-N-(3-(4-methyl-1H-imidazol-1-yl)-5-(trifluoromethyl)phenyl)-3-((8-((1-methyl-1H-pyrazol-4-yl)amino)imidazo[1,2-a]pyridin-3-yl)ethynyl)benzamide]",less than 35%
3,Cc1ccc(NC(=O)C2(C(=O)Nc3ccc(F)cc3)CC2)cc1C#Cc1cnc2c(Nc3cnn(C(C)C)c3)cccn12 [Example 78],less than 35%
